The supplement of paper PMC10849652
The other results are listed elsewhere or left out.

The chains behind the UniProt entries cited, without tags or fusion partners. Where a name states a change or a piece, a line headed by the entry shows the natural chain unless it says otherwise.
UniProt Q9H6Y2: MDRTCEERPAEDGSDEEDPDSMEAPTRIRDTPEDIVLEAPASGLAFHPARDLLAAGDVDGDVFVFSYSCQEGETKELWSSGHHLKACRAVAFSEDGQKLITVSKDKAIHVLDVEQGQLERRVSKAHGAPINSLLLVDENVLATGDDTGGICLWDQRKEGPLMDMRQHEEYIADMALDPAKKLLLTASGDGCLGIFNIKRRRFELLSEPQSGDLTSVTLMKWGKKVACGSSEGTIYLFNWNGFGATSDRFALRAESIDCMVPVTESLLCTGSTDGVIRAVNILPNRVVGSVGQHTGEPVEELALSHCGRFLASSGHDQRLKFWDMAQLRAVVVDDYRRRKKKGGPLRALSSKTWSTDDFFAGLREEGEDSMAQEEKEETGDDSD
UniProt Q969T9: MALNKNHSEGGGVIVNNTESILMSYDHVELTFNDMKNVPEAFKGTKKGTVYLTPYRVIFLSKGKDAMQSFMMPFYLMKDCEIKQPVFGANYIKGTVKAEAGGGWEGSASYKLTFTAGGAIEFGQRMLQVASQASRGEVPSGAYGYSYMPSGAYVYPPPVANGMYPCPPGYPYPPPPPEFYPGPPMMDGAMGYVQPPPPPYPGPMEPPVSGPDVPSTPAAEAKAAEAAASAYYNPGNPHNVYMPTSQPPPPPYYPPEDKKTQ
UniProt Q9Y277: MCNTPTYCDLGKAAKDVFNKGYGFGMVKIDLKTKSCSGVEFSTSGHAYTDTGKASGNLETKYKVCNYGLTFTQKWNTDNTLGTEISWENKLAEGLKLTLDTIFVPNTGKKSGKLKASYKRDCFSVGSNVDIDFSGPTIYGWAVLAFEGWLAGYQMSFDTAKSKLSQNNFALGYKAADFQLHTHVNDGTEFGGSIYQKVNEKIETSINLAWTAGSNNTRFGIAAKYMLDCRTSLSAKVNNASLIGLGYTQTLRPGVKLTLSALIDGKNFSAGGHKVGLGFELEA
UniProt Q9HBM0: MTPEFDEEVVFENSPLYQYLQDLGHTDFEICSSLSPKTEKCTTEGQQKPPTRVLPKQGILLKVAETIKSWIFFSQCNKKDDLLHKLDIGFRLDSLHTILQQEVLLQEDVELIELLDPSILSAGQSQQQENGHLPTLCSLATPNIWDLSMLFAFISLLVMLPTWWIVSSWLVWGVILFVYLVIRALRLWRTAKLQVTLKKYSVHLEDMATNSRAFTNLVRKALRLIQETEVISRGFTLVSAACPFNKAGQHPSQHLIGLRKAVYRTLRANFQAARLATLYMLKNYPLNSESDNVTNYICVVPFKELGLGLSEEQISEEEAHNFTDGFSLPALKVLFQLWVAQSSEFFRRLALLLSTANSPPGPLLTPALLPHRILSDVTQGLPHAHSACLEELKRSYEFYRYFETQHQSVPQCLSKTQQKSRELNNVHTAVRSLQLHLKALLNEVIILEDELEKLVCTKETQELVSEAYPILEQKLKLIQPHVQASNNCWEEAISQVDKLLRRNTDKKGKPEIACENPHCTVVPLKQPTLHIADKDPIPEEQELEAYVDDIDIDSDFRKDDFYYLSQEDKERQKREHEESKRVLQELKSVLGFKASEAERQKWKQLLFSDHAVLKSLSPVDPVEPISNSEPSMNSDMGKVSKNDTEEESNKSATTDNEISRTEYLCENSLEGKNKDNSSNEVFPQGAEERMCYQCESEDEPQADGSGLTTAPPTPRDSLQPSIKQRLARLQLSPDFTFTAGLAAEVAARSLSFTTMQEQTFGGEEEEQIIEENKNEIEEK
UniProt Q9NW82: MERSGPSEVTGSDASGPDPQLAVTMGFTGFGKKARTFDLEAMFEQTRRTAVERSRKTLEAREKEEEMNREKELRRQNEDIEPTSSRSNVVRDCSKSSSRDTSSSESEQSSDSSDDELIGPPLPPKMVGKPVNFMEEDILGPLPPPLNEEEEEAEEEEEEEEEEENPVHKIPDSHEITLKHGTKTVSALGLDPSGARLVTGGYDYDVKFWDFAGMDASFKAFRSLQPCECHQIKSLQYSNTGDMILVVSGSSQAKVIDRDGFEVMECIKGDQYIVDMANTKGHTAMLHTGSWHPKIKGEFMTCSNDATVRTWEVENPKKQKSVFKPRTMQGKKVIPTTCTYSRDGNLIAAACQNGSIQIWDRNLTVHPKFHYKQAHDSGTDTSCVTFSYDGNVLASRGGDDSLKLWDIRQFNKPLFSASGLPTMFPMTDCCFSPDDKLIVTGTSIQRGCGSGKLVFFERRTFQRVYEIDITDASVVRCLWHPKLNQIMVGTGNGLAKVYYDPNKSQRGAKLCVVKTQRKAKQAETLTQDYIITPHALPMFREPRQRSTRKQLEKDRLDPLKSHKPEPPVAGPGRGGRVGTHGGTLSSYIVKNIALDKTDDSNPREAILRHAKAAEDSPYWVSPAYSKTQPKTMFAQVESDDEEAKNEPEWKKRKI
UniProt P04004: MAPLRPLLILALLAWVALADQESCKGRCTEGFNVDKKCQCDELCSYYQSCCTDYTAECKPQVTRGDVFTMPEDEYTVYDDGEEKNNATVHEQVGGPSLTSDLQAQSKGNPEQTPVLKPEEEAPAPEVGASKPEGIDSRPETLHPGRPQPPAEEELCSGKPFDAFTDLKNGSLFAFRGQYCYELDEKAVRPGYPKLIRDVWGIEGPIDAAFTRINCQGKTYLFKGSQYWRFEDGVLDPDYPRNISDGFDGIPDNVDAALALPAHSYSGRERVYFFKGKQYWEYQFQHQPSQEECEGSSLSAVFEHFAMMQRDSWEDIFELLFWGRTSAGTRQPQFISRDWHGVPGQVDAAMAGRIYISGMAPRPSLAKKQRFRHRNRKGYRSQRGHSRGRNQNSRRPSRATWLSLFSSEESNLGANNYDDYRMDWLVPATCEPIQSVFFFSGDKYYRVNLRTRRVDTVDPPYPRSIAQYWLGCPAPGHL
UniProt Q14135: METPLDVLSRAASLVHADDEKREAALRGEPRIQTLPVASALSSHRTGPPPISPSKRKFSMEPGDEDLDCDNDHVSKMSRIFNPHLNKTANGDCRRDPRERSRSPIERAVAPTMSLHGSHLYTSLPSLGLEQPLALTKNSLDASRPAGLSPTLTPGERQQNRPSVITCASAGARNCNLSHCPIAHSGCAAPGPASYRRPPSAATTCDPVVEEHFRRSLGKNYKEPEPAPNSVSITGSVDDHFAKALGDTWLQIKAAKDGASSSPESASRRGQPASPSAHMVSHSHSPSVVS
UniProt Q3ZAQ7: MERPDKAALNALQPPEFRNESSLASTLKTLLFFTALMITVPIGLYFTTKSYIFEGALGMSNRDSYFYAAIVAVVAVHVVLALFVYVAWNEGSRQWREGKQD
UniProt Q562E7: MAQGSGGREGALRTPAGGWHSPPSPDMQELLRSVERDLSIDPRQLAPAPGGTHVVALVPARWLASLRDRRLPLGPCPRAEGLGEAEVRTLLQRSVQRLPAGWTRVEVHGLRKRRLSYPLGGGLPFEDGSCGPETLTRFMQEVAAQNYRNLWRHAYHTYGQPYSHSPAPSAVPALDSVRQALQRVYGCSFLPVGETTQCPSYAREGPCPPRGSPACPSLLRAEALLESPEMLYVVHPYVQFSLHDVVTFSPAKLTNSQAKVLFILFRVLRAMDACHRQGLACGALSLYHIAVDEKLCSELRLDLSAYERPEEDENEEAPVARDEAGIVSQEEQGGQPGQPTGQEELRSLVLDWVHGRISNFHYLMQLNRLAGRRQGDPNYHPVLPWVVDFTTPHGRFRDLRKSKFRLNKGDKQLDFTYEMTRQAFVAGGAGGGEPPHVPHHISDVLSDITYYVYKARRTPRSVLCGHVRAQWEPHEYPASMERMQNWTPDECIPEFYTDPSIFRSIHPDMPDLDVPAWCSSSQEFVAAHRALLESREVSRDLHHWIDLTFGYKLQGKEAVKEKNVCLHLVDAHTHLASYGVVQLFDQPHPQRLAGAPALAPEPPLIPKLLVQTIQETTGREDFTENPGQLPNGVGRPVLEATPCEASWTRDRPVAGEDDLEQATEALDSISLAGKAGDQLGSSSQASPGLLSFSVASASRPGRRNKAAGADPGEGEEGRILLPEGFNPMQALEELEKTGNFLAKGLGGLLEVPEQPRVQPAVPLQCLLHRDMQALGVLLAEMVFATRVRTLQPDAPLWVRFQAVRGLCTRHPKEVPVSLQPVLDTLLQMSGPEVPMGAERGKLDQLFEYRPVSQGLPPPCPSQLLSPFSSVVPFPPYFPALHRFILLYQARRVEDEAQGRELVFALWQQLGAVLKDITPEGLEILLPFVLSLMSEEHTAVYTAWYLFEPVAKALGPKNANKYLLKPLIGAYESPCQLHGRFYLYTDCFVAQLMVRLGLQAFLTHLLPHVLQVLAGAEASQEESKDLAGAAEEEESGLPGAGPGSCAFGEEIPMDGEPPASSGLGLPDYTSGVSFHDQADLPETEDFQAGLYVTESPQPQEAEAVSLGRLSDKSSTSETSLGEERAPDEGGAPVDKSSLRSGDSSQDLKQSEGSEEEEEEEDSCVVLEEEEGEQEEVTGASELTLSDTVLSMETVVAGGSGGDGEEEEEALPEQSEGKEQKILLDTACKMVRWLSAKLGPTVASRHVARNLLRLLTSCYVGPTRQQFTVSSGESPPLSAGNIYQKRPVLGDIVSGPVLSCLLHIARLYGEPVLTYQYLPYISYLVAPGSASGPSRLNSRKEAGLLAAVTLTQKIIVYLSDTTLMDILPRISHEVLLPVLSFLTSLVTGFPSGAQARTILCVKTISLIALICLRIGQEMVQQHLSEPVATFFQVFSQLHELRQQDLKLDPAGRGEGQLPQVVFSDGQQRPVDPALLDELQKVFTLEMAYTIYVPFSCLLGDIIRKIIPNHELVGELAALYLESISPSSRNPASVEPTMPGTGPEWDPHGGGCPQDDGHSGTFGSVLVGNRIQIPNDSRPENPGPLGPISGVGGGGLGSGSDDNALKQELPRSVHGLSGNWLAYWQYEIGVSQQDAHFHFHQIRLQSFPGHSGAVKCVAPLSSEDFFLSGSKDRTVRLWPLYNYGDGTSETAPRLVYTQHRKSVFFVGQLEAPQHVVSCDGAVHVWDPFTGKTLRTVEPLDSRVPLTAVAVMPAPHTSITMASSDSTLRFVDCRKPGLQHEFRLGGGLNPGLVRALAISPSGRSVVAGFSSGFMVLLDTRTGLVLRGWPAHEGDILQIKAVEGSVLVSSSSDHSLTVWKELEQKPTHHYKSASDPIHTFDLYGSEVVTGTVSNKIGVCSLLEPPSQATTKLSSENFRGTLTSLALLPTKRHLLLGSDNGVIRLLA
UniProt Q8IWB7: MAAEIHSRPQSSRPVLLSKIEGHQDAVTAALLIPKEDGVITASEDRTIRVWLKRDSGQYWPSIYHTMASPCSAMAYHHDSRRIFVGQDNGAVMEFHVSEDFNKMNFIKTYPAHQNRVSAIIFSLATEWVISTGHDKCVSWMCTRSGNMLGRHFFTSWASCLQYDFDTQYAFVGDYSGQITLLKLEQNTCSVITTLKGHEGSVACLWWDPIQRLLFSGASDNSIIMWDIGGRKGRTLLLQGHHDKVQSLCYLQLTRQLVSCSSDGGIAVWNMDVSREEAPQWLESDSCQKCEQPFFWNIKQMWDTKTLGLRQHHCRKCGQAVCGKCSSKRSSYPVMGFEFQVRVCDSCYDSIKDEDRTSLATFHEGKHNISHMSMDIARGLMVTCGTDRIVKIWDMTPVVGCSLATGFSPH
UniProt Q9BRG1: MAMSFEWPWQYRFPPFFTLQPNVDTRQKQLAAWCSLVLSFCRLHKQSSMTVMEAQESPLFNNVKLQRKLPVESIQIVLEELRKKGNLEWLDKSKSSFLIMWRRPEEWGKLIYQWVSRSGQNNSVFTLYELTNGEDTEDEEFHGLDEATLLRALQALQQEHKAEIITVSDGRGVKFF
UniProt Q9H1Z4: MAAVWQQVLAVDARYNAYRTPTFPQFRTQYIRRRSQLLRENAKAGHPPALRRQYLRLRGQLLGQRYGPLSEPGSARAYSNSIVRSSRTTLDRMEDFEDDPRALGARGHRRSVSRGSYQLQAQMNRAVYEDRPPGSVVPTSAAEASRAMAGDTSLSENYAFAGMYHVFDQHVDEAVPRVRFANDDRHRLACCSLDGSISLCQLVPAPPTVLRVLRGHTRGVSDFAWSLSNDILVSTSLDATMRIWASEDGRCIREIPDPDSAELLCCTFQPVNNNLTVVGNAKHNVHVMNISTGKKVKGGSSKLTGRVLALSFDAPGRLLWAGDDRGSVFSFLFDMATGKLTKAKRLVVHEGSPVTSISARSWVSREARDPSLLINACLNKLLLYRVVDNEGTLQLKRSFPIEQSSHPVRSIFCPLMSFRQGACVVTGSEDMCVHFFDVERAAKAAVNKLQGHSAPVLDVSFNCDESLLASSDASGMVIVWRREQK

Columns and labels:
Test in all cases: log2 fold change, soluble protein after heating vs DMSO (PISA); higher = thermal stabilisation; K562 cells, 10 uM, 30 min; active = over 0.2 and 3.5 SD of the protein, either way, in both replicates (recomputed)
[1] = compound: NC(=O)Nc1cc(-c2cccc(F)c2)sc1C(=O)N[C@H]1CCCNC1
Outline: (§1)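 Thermal stability values are relative to control samples and come from duplicates. They are expressed as log2 fold changes. For measurement, K562 cells (2×10^6 cells/mL) received 10 μM compound for 30 min, and aliquots were heated for 3 min over 48°C-58°C, pooled, and extracted at 4°C in PBS with 0.5% NP-40. Soluble protein, the supernatant after 21,000xg for 90 min, was quantified by TMTpro 16plex LC-MS/MS with equalised channel sums.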

[2] = compound: NC(=O)c1cnc(N[C@@H]2CCCC[C@@H]2N)nc1Nc1cccc(-n2nccn2)c1
Outline: as §1

[3] = compound: NC1(c2ccc(-c3nc4ccn5c(=O)[nH]nc5c4cc3-c3ccccc3)cc2)CCC1
Outline: as §1

[4] = compound: NCC(=O)Nc1ccc(-n2nc(C(F)(F)F)cc2-c2ccc3c(ccc4ccccc43)c2)cc1
Outline: as §1

entinostat = compound: Nc1ccccc1NC(=O)c1ccc(CNC(=O)OCc2cccnc2)cc1 [entinostat]
Outline: as §1

vorinostat = compound: O=C(CCCCCCC(=O)Nc1ccccc1)NO [vorinostat]
Outline: as §1

citarinostat = compound: O=C(CCCCCCNC(=O)c1cnc(N(c2ccccc2)c2ccccc2Cl)nc1)NO [citarinostat]
Outline: as §1

silmitasertib = compound: O=C(O)c1ccc2c(c1)nc(Nc1cccc(Cl)c1)c1ccncc12 [silmitasertib]
Outline: as §1

[5] = compound: O=C1NC(=O)C(c2cnc3ccccn23)=C1c1cn2c3c(cc(F)cc13)CN(C(=O)N1CCCCC1)CC2
Outline: as §1

[6] = compound: c1cc(OCCN2CCCCC2)cc(-c2n[nH]c3ccc(-c4nnc[nH]4)cc23)c1
Outline: as §1

entospletinib = compound: c1cn2cc(-c3ccc4cn[nH]c4c3)nc(Nc3ccc(N4CCOCC4)cc3)c2n1 [entospletinib]
Outline: as §1

Measured: log2 fold change

WDR55 (UniProt Q9H6Y2)
inactive: [1] -0.047 | [2] -0.055 | [3] -0.019 | [4] 0.008 | entinostat -0.049 | vorinostat -0.018 | citarinostat 0.005 | silmitasertib 0.013 | [5] -0.034 | [6] -0.021 | entospletinib -0.012

WASHC4 (UniProt Q2M389)
inactive: [1] -0.023 | [2] 0.002 | [3] -0.193 | [4] -0.096 | entinostat 0.099 | vorinostat 0.068 | citarinostat 0.026 | silmitasertib -0.002 | [5] 0.084 | [6] -0.049 | entospletinib 0.088

VPS13A (UniProt Q96RL7)
inactive: [1] 0.002 | [2] -0.025 | [3] -0.043 | [4] -0.009 | entinostat -0.031 | vorinostat 0.044 | citarinostat 0.004 | silmitasertib 0.004 | [5] 0.029 | [6] -0.007 | entospletinib -0.026

WRAP73 (UniProt Q9P2S5)
inactive: [1] 0.1 | [2] 0.042 | [3] 0.032 | [4] 0.022 | entinostat 0.033 | vorinostat -0.036 | citarinostat 0.012 | silmitasertib -0.025 | [5] -0.008 | [6] -0.038 | entospletinib 0.004

WBP2 (UniProt Q969T9)
inactive: [1] 0.01 | [2] 0.073 | [3] -0.032 | [4] 0.012 | entinostat -0.009 | vorinostat -0.035 | citarinostat 0.036 | silmitasertib -0.026 | [5] 0.034 | [6] -0.063 | entospletinib 0.007

WDR26, A0A499FIZ0
inactive: [1] -0.043 | [2] 0.006 | [3] -0.128 | [4] -0.011 | entinostat 0.004 | vorinostat -0.031 | citarinostat -0.005 | silmitasertib 0.081 | [5] -0.027 | [6] -0.029 | entospletinib 0.023

VPS4A (UniProt Q9UN37)
inactive: [1] -0.042 | [2] -0.003 | [3] -0.155 | [4] -0.014 | entinostat 0.036 | vorinostat 0.131 | citarinostat 0.02 | silmitasertib 0.049 | [5] -0.007 | [6] -0.039 | entospletinib -0.011

WBP11 (UniProt Q9Y2W2)
inactive: [1] -0.012 | [2] -0.02 | [3] 0.046 | [4] -0.007 | entinostat -0.047 | vorinostat 0 | citarinostat 0.003 | silmitasertib -0.029 | [5] 0.005 | [6] -0.019 | entospletinib -0.017

WRAP53 (UniProt Q9BUR4)
inactive: [1] 0.017 | [2] 0.01 | [3] -0.039 | [4] -0.04 | entinostat -0.05 | vorinostat 0.104 | citarinostat 0.073 | silmitasertib -0.032 | [5] 0.077 | [6] -0.084 | entospletinib -0.062

VDAC3 (UniProt Q9Y277)
inactive: [1] -0.015 | [2] -0.046 | [3] 0.001 | [4] -0.017 | entinostat -0.012 | vorinostat -0.019 | citarinostat 0.016 | silmitasertib -0.005 | [5] -0.03 | [6] -0.024 | entospletinib 0.008

WDR59 (UniProt Q6PJI9)
inactive: [1] 0.105 | [2] -0.07 | [3] 0.182 | [4] -0.028 | entinostat -0.008 | vorinostat 0.015 | citarinostat 0.028 | silmitasertib -0.194 | [5] 0.017 | [6] 0.125 | entospletinib 0.117

WDR73 (UniProt Q6P4I2)
inactive: [1] -0.001 | [2] -0.047 | [3] -0.074 | [4] -0.038 | entinostat -0.011 | vorinostat -0.041 | citarinostat 0.022 | silmitasertib 0.003 | [5] -0.061 | [6] 0.027 | entospletinib -0.025

VEZT (UniProt Q9HBM0)
inactive: [1] -0.045 | [2] -0.069 | [3] -0.072 | [4] -0.015 | entinostat 0.112 | vorinostat -0.234 | silmitasertib -0.019 | [5] 0.038

WIPF1 isoform 3 (UniProt O43516)
inactive: [1] 0.016 | [2] 0.06 | [3] -0.016 | [4] 0.013 | entinostat 0.023 | vorinostat 0.166 | citarinostat 0.087 | silmitasertib -0.026 | [6] 0.075 | entospletinib 0.005

VKORC1 (UniProt Q9BQB6)
inactive: [1] -0.006 | [2] 0 | [3] -0.054 | [4] -0.114 | entinostat 0.025 | vorinostat -0.034 | citarinostat 0.001 | silmitasertib -0.023 | [6] 0.073

VDAC1 (UniProt C9JI87)
inactive: [1] -0.145 | [2] -0.166 | [3] -0.065 | entinostat -0.158 | citarinostat -0.153 | silmitasertib 0.024 | [5] -0.09 | [6] 0.044

WDR70 (UniProt Q9NW82)
inactive: [1] 0.003 | [2] 0.002 | [3] -0.042 | [4] -0.01 | entinostat -0.017 | vorinostat -0.024 | citarinostat 0.034 | silmitasertib -0.003 | [5] -0.026 | [6] 0.002 | entospletinib 0.025

WDR34 (UniProt Q96EX3)
inactive: [1] 0.094 | [2] -0.048 | [3] 0.007 | [4] 0.043 | entinostat -0.031 | vorinostat 0.102 | silmitasertib 0.18 | [5] -0.019

WARS (UniProt P23381)
inactive: [1] 0.073 | [2] 0.014 | [3] 0.097 | [4] 0.058 | entinostat -0.025 | vorinostat -0.024 | citarinostat -0.014 | silmitasertib -0.048 | [5] -0.012 | [6] 0.029 | entospletinib 0.031

VTN (UniProt P04004)
inactive: [1] -0.117 | [2] -0.015 | [3] 0.083 | [4] -0.103 | entinostat -0.063 | citarinostat -0.056 | silmitasertib 0.185 | [5] 0.227 | [6] 0.019 | entospletinib 0.174

VGLL4 isoform 4 (UniProt Q14135)
inactive: [1] 0.048 | [2] -0.103 | [3] 0.056 | [4] 0.02 | entinostat -0.063 | vorinostat 0.084 | silmitasertib 0.03 | [5] -0.049

WDR44 (UniProt Q5JSH3)
inactive: [1] 0.05 | [2] -0.028 | [3] -0.018 | [4] -0.006 | entinostat -0.036 | vorinostat -0.011 | citarinostat -0.006 | silmitasertib -0.017 | [5] -0.032 | [6] -0.027 | entospletinib -0.024

Random excerpt: 2 records from the list.
VGLL4 isoform 4 (UniProt Q14135)
inactive: [1] 0.048 | [2] -0.103 | [3] 0.056 | [4] 0.02 | entinostat -0.063 | vorinostat 0.084 | silmitasertib 0.03 | [5] -0.049

WDR34 (UniProt Q96EX3)
inactive: [1] 0.094 | [2] -0.048 | [3] 0.007 | [4] 0.043 | entinostat -0.031 | vorinostat 0.102 | silmitasertib 0.18 | [5] -0.019

More records follow:

VMA21 (UniProt Q3ZAQ7)
inactive: [1] 0.046 | [2] -0.004 | [3] -0.076 | [4] 0.047 | entinostat 0.036 | vorinostat -0.226 | citarinostat -0.016 | silmitasertib -0.047 | [5] -0.137 | [6] 0.006 | entospletinib 0.035

WDR81 (UniProt Q562E7)
inactive: [1] -0.161 | [2] -0.14 | entinostat 0.022 | [5] 0.013

VPS26A (UniProt O75436)
inactive: [1] 0.002 | [2] -0.154 | [3] -0.127 | [4] -0.075 | entinostat 0.015 | vorinostat 0.041 | citarinostat 0.07 | silmitasertib 0 | [5] -0.018 | [6] -0.028 | entospletinib -0.061

WDR53 (UniProt Q7Z5U6)
inactive: [1] -0.194 | [2] 0.002 | [3] -0.057 | [4] -0.058 | entinostat 0.097 | vorinostat 0.019 | citarinostat 0.072 | silmitasertib -0.036 | [6] 0.039 | entospletinib -0.112

WDFY1 (UniProt Q8IWB7)
inactive: [1] -0.023 | [2] 0.097 | [3] -0.078 | [4] 0.043 | entinostat -0.007 | vorinostat -0.044 | citarinostat 0.009 | silmitasertib 0.076 | [5] -0.037 | [6] 0.024 | entospletinib 0.012

VPS25 (UniProt Q9BRG1)
inactive: [1] -0.009 | [2] 0 | [3] -0.089 | [4] -0.034 | entinostat 0.045 | vorinostat 0.002 | citarinostat 0.068 | silmitasertib 0.015 | [5] -0.098 | [6] -0.036 | entospletinib -0.026

WDR13 (UniProt Q9H1Z4)
inactive: [1] 0.005 | [2] -0.05 | [3] -0.024 | [4] -0.024 | entinostat -0.017 | vorinostat 0.051 | citarinostat 0.064 | silmitasertib 0.022 | [5] -0.065 | [6] 0.021 | entospletinib 0.11
